Results as given in PubChem BioAssay AID2685 (National Center for Advancing Translational Sciences (NCATS), 2010).
The list shows a part of the results. Further columns of the screen follow, without active or inactive calls. Most of these compounds were active or inconclusive in the main read-out, so they are no random draw. Words in brackets tell the shape of the fitted curve; partial curves, single points and poor fits give uncertain potencies.

Test: qHTS Assay for Lipid Storage Modulators in Drosophila S3 Cells;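 as to cell number change: cells counted by Cell Tracker Red CMTPX staining in the red channel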
Details: BODIPY lipid droplet fluorescence, 18-24 h; for cell number change: measured here: cell count max response, cells fed with added oleic acid
Outline: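 Drosophila S3 cells loaded with oleic acid (400 uM, as added) and compounds at several concentrations; lipid droplets imaged by 488-nm laser-scanning cytometry, 500–530 nm intensity and object ratio to cell channel. Percent activity normalized to 20 uM Triacsin C.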

[1] = measured here: lipid fluorescence (Fed channel) AC50, cells fed with added oleic acid
[2] = measured here: cell number channel AC50, cells fed with added oleic acid

Structure (SMILES) | cell number change [%] | AC50 [1] | AC50 [2]
O=C(c1ccco1)N1CCN(S(=O)(=O)c2ccccc2)CC1 | 15.3 | 0.206 µM [rising, full curve, poor fit] | –
O=C(Nc1ccccc1C(=O)N1CCN(CCO)CC1)c1cccc([N+](=O)[O-])c1 | -0.289 | 29.1 µM [rising, single point] | –
CC1(c2ccccc2)NC(=O)N(CC(=O)Nc2ccc3c(c2)OCO3)C1=O (stereo not drawn) | 18 | 2.91 µM [rising, single point] | –
CC1C2=C(CC(C)(C)CC2=O)NC2=C1C(=O)CC(C)(C)C2 | -17.8 | – | –
Cc1ccccc1CSc1nc(C(C)(C)C)cc(=O)[nH]1 | 13.1 | 1.3 µM [rising, full curve, poor fit] | –
CCC(=O)N/N=C(\C)CC(=O)Nc1ccc(F)cc1 | -13.6 | – | –
COc1ccc(OC)c2[nH]c(=O)c(CCNS(=O)(=O)c3ccc(F)cc3)cc12 | -27.6 | – | 3.66 µM [falling, full curve, poor fit]
O=C(NNC(=O)c1ccc(Cl)cc1Cl)c1cnccn1 | -19.3 | – | –
OCCNc1ncnc2c1nnn2Cc1ccccc1 | 17.2 | 29.1 µM [falling, single point] | –
COC(=O)C1C(=O)/C(=C(/C)N2CCCC2)C(=O)CC1(C)C (stereo not drawn) | 48.7 | – | 13 µM [rising, partial curve, poor fit]
COc1cccc(Nc2ccc(N3CCCCC3)cc2)c1OC | -56.5 | 0.58 µM [falling, full curve] | 0.651 µM [falling, full curve]
COc1ccc(C(NC(C)=O)c2cc(Cl)c3cccnc3c2O)cc1 (stereo not drawn) | -11.3 | 23.1 µM [falling, single point] | 4.11 µM [rising, partial curve]
O=C(O)Cc1ccc(NC(=O)c2ccc(Cl)c(Cl)c2)cc1 | 29.6 | 20.6 µM [rising, single point] | –
Cc1ccc(S(=O)(=O)N2CCN(C(=O)c3ccnn3C)CC2)cc1C | 25.5 | 29.1 µM [rising, single point] | –
COc1ccccc1CNc1ccc(N2CCCCC2)cc1 | 12.7 | – | –
COc1cc2c(cc1OC)C(c1ccc(-c3ccc(Cl)c(Cl)c3)o1)=NCC2 | – | 0.00461 µM [rising, full curve, poor fit] | 0.517 µM [rising, partial curve, poor fit]
OCC1(Cc2ccccc2)CCN(Cc2cc3ccccc3o2)CC1 | -12.5 | 0.651 µM [falling, full curve, poor fit] | –
Cc1ccc(/C(O)=C2/C(=O)C(=O)N(CCN3CCOCC3)C2c2ccccn2)cc1 (stereo not drawn) | – | 6.51 µM [falling, single point] | –
COc1ccc(N(CC(=O)NC2CCCC2)S(=O)(=O)c2ccc(NC(C)=O)cc2)cc1 | -31.4 | 0.13 µM [rising, full curve] | 0.0517 µM [falling, full curve, poor fit]

Some values from above:
AC50 [1], COc1cccc(Nc2ccc(N3CCCCC3)cc2)c1OC is entered as 0.58 µM [falling, full curve]
cell number change [%], COc1ccc(N(CC(=O)NC2CCCC2)S(=O)(=O)c2ccc(NC(C)=O)cc2)cc1 is entered as -31.4
AC50 [1], COc1cc2c(cc1OC)C(c1ccc(-c3ccc(Cl)c(Cl)c3)o1)=NCC2 is entered as 0.00461 µM [rising, full curve, poor fit]

Later entries:

Structure (SMILES) | cell number change [%] | AC50 [1] | AC50 [2]
C=C1C[C@H]2[C@@H]3C=C(C)C4=CC(=O)CC[C@]4(C)[C@H]3CC[C@]2(C)[C@@]1(OC(C)=O)C(C)=O | 25.9 | 1.03 µM [rising, full curve] | 0.651 µM [rising, full curve, poor fit]
CCOC(=O)N1CCN(C(=O)c2ccc(N3C(=O)CCC3=O)cc2)CC1 | -33.8 | 25.9 µM [falling, partial curve] | 0.0366 µM [falling, full curve, poor fit]
Cc1ccc(C)c(C(=O)OCC(=O)Nc2cccc(S(=O)(=O)N3CCCCC3)c2)c1 | 7.74 | 32.6 µM [rising, single point] | –
CCOc1cccc(/C=C(/C#N)c2nc3ccccc3[nH]2)c1OCC(=O)O | 9.85 | 29.1 µM [rising, single point] | –
CCOC(=O)/C(N=Nc1ccc(Cl)cc1)=C(/O)c1ccc([N+](=O)[O-])cc1 | 37.1 | 6.51 µM [rising, single point] | 2.31 µM [rising, partial curve]
CCN(CC)C(=O)CSc1nc2ccccc2o1 | 9.25 | 0.291 µM [rising, full curve, poor fit] | –
O=C(COC(=O)C1(c2ccccc2F)CCCC1)Nc1ncc(C(F)(F)F)cc1Cl | -39.1 | 14.6 µM [falling, partial curve] | 18.4 µM [falling, partial curve, poor fit]
CCC(=O)Nc1sc(C(=O)OC)c(C)c1C(=O)OC | -3.46 | 0.461 µM [rising, full curve] | –
COCCN(C(=O)Nc1ccc(OC)cc1)c1nc2ccccc2s1 | -2.76 | 8.2 µM [falling, partial curve] | –
O=C(NCCc1csc(-c2cccc(F)c2)n1)c1ccco1 | – | 0.116 µM [falling, single point] | –
CCN1C(=O)/C(=C/c2ccc(N3CCCC3)cc2)NC1=S | -24.7 | – | –
O=C(CNc1ccccc1C(=O)O)c1ccccc1 | 16 | 0.651 µM [falling, single point] | –
O=C(N/N=C/c1cc([N+](=O)[O-])ccc1O)c1cccc(N2CCCC2=O)c1 | -30.6 | – | 35.5 µM [falling, single point]
NC(=O)COC(=O)c1ccc2c(c1)C(=O)N(Cc1ccco1)C2=O | 2.52 | – | –
N#C/C(=C\c1ccc(N2CCCC2)c([N+](=O)[O-])c1)c1nc2ccccc2[nH]1 | -17.2 | 6.51 µM [falling, single point] | –
C#CCN(N(C)c1ncc(C(F)(F)F)cc1Cl)S(=O)(=O)c1ccc2ccccc2c1 | – | 6.51 µM [rising, single point] | –
CC(C)c1ccc(/C=N/NC(=O)c2ccccc2Cl)cc1 | -17.6 | 0.13 µM [falling, full curve, poor fit] | –
Nc1ccc(C(=O)OCC(=O)Nc2cc([N+](=O)[O-])ccc2F)cc1 | 10.2 | 29.1 µM [rising, single point] | –
COc1ccc(C(=O)NC(=S)Nc2cccnc2)cc1[N+](=O)[O-] | – | 23.1 µM [rising, single point] | –
